According to patent US12564600B2, “System for enhancing therapeutic compliance of the anti-cancer compound E7766” (Eisai R&D Management Co., Ltd., priority 2019, dated 2026):

Experiment: Physicochemical properties and ECCS classification of Compound 1

## O=[P@]1(S)OC[C@H]2O[C@@H]3[C@H](F)[C@@H]2O[P@](=O)(S)OC[C@H]2O[C@H]([C@H](F)[C@@H]2O1)n1cnc2c(ncnc21)NC/C=C/CNc1ncnc2c1ncn23 [Compound 1]
Concluded from review of the compound
  Extended Clearance Classification System class: Class 3B
Scale of Varma et al. 2015
  ECCS Class: 3B
